Measurements from the supplement of paper PMC10849652.
This is one part of the list. Residues, ends and D or L forms follow the SMILES beside them. *: point of attachment. Cbz = O=C(OCc1ccccc1)*

Protein sequences, listed by entry. Tags and fused reporters are not part of them. Lines headed by an entry give the natural chain unless they say otherwise; changes in a name come on top.
UniProt Q8IZN3: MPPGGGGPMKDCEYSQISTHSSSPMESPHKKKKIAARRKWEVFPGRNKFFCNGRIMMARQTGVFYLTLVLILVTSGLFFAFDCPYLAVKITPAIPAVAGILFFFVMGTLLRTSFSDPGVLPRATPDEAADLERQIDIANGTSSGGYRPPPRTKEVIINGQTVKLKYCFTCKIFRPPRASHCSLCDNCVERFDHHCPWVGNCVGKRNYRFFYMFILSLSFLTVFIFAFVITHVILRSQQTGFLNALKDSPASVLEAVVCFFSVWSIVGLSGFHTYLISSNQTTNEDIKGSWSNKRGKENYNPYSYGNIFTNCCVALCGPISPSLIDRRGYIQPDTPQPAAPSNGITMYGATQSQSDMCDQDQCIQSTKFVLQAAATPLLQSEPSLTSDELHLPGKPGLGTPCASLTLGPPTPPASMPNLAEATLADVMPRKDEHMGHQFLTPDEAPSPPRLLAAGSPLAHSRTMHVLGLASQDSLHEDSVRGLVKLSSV
UniProt Q8WU90: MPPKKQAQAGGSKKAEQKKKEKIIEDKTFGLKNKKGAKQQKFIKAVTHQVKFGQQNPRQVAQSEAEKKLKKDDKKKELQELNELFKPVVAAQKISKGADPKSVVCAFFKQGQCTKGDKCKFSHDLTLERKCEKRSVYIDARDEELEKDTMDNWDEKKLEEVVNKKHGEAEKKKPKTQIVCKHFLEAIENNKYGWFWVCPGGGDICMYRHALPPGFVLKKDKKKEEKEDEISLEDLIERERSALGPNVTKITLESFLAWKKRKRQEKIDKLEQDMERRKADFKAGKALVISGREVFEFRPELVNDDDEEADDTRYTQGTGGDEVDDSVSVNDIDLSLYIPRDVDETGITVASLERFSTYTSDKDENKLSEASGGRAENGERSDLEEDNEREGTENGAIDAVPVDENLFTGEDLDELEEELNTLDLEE
UniProt O15498: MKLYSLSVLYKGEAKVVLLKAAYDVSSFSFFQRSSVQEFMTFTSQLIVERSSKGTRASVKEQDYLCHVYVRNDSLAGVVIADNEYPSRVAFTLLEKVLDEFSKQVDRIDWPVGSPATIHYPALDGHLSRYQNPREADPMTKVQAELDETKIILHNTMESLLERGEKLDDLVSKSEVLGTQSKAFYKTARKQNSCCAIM
UniProt Q9BW85: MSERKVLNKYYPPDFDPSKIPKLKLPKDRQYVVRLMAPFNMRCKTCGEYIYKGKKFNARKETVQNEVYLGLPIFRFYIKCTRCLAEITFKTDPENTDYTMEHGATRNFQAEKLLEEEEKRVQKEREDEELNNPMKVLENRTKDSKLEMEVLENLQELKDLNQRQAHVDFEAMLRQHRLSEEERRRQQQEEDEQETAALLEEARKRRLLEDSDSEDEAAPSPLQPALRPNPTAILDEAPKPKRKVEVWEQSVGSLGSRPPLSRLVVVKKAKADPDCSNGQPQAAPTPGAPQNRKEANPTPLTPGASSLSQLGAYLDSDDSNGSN
UniProt Q13426: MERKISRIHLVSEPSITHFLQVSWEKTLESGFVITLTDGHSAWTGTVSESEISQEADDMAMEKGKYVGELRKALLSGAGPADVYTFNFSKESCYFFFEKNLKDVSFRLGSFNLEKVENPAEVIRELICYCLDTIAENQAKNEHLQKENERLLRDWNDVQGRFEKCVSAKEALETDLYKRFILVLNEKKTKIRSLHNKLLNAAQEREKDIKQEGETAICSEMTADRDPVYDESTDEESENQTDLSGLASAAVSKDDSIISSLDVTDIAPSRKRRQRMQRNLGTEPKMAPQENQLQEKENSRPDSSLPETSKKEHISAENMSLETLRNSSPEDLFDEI
UniProt P16989, whole entry, looked up: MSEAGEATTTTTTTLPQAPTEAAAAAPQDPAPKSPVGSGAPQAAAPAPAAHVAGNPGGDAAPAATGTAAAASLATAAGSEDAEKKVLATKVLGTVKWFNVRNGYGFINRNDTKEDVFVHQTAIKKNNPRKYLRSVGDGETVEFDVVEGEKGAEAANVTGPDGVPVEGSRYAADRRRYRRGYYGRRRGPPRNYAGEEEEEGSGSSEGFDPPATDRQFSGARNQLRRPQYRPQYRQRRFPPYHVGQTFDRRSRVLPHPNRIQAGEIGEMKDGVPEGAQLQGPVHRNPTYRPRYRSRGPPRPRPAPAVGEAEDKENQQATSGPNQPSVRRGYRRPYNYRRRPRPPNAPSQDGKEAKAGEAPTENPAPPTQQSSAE
UniProt O75844: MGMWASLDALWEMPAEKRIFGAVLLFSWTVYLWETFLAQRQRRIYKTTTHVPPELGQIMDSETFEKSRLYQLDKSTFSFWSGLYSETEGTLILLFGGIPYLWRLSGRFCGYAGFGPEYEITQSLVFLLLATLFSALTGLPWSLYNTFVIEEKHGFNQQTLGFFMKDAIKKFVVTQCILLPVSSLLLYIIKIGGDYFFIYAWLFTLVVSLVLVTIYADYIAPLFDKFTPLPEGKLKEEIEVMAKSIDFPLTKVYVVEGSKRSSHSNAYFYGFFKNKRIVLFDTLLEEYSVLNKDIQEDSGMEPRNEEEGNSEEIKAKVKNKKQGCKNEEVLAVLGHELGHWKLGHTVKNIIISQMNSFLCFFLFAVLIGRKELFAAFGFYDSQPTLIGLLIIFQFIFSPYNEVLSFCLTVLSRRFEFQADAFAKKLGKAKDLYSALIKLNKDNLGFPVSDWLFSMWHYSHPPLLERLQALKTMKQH
UniProt Q9UPT8: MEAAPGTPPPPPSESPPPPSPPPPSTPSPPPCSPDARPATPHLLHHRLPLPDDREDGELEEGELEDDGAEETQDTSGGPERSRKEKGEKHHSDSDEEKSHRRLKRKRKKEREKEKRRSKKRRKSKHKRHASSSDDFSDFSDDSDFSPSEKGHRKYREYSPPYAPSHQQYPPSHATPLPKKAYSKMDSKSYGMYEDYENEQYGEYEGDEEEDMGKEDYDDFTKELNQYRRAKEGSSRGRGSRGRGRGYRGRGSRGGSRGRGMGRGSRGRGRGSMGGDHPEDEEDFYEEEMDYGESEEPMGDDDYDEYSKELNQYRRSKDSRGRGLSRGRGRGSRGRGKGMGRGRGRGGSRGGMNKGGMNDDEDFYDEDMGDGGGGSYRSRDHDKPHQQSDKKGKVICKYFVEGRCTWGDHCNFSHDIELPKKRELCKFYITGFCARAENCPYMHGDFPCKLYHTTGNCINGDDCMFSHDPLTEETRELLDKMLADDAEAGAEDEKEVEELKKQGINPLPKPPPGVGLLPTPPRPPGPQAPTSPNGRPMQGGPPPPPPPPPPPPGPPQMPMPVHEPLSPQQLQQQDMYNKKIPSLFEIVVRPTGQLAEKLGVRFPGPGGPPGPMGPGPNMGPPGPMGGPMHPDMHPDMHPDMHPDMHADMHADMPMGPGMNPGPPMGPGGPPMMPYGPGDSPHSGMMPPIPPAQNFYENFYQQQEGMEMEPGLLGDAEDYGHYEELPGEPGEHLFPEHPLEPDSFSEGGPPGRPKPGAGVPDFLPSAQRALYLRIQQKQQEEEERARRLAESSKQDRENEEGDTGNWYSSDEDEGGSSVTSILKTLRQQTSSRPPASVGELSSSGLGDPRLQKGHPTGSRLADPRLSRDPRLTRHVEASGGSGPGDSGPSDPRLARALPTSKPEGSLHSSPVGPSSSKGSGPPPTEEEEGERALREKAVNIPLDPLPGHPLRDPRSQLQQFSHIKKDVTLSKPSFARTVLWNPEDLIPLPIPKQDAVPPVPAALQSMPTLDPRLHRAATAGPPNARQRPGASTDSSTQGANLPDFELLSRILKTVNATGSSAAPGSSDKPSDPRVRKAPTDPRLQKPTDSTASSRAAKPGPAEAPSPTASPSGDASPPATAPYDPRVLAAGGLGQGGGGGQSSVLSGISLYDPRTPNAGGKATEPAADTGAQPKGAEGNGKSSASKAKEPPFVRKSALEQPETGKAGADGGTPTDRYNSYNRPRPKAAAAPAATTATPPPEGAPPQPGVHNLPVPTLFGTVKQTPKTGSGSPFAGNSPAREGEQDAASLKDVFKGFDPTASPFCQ
UniProt Q96GY0: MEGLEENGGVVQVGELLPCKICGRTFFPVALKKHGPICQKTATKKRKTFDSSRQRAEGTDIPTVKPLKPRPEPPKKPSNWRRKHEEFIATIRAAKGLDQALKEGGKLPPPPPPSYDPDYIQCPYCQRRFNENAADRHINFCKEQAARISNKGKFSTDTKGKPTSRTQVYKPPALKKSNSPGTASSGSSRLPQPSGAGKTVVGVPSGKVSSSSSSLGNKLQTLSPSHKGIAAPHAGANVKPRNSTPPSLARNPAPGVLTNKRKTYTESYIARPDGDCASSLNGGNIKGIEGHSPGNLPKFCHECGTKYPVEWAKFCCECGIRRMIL
UniProt Q9NYG2: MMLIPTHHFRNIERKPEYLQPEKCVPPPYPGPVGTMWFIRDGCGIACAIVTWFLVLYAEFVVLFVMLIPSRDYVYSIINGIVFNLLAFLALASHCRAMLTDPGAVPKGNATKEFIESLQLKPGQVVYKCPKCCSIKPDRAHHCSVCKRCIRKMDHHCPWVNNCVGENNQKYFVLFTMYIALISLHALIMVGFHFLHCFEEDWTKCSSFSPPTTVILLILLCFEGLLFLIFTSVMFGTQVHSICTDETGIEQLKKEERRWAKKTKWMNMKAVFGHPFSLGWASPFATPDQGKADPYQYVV
UniProt Q5T200: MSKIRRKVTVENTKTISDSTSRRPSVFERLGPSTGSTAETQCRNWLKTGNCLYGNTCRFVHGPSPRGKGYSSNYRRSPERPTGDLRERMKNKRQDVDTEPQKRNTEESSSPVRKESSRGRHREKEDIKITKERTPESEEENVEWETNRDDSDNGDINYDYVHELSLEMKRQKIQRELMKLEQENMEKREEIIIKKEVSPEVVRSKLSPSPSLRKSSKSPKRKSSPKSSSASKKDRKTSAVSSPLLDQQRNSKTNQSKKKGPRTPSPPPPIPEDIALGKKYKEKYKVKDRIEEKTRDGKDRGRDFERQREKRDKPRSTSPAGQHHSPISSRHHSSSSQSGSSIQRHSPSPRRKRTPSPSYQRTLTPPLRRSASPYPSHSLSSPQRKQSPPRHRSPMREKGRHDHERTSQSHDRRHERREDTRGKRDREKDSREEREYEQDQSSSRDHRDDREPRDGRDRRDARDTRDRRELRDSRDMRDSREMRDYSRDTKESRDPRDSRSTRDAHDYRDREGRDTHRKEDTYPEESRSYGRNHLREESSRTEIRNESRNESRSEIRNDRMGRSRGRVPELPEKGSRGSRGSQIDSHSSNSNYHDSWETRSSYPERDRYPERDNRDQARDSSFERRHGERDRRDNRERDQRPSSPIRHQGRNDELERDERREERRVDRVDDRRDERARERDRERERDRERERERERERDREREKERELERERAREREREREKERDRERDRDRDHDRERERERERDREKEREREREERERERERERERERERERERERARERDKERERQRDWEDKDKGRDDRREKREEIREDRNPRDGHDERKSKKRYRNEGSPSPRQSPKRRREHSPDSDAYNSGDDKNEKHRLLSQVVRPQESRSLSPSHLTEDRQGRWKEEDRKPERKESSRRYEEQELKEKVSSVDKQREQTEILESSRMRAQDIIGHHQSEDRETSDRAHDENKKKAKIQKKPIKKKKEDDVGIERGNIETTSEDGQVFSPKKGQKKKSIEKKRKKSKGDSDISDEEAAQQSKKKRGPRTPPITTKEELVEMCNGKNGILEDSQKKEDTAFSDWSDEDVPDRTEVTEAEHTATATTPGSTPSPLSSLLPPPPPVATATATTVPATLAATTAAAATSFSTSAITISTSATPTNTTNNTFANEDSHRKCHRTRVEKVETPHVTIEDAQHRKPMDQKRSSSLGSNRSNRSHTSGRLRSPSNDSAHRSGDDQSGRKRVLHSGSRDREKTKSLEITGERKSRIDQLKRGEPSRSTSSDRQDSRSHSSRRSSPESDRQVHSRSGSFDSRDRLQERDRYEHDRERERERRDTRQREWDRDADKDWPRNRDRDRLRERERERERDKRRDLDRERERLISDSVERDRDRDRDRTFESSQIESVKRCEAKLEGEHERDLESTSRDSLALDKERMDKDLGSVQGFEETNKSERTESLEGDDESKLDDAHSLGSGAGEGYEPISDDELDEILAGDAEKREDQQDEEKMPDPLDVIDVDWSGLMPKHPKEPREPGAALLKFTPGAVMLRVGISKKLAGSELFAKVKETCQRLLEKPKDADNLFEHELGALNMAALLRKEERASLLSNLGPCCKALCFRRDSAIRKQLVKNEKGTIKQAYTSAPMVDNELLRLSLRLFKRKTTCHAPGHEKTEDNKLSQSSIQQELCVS
UniProt Q86U90: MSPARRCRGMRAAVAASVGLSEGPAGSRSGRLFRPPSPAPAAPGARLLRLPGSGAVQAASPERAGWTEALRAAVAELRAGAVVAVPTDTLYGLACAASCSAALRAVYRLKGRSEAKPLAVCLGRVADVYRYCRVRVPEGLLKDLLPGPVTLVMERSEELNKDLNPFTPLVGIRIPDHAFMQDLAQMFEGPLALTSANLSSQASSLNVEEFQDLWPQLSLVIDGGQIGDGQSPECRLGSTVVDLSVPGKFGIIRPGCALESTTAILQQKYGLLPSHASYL

Columns and labels:
Experiment in all cases: log2 fold change, soluble protein after heating vs DMSO (PISA); higher = thermal stabilisation; K562 cells, 10 uM, 30 min; active = over 0.2 and 3.5 SD of the protein, either way, in both replicates (recomputed)
[1] = compound: C1COCCN1CCN2C3=CC=CC=C3N=C2NC(=O)C4=CC(=CC=C4)[N+](=O)[O-] [IRAK-1-4 Inhibitor I]
Method in brief: (§1)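 Soluble protein was defined as the supernatant after 21,000xg for 90 min. It came from K562 cells at 2×10^6 cells/mL given 10 μM compound for 30 min, heated in aliquots for 3 min across 48°C-58°C, pooled, and extracted in PBS with 0.5% NP-40 at 4°C, and was quantified by TMTpro 16plex LC-MS/MS with equalised channel sums. Thermal stability against control samples, from duplicates, is reported as log2 fold change.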

[2] = compound: C=CC(=O)N1CCC[C@@H](n2nc(-c3ccc(Oc4ccccc4)cc3)c3c(N)ncnc32)C1 [ibrutinib]
Method in brief: as §1

[3] = compound: CC(=O)c1cnc2ccc(-c3cc(Cl)c(O)c(Cl)c3)nc2c1N[C@H]1CC[C@H](CN(C)C)CC1
Method in brief: as §1

[4] = compound: CC(C)(C)Cn1c(N)nc2ccc(-c3[nH]c(C(C)(C)C)nc3-c3ccc(F)cc3)nc21 [ralimetinib]
Method in brief: as §1

[5] = compound: CC(C)(O)CC(=O)NCCn1ccc2ncnc(Nc3ccc(Oc4cccc(C(F)(F)F)c4)c(Cl)c3)c21
Method in brief: as §1

[6] = compound: CC(C)C1=C2N=C(C=C(N2N=C1)NCC3=CC=CC=C3)NCCCCCCN
Method in brief: as §1

[7] = compound: CC(C)C[C@@H](C=O)NC(=O)[C@H](CC(C)C)NC(=O)[C@H](CC(C)C)NC(=O)OCc1ccccc1
Method in brief: as §1

[8] = compound: CC(C)N(C[C@H]1O[C@@H](n2cnc3c(N)ncnc32)[C@H](O)[C@@H]1O)[C@H]1C[C@@H](CCc2nc3cc(C(C)(C)C)ccc3[nH]2)C1 [pinometostat]
Method in brief: as §1

[9] = compound: CC1=C(C(CC(=O)N1)C2=CC=C(C=C2)C(F)(F)F)C(=O)NC3=C(C=C4C(=C3)C=NN4)F
Method in brief: as §1

[10] = compound: CC1=C(C2=C(C=C1)C(=O)C3=CC=CC=C3N2CCCN)C
Method in brief: as §1

Measured: log2 fold change

ZC3HAV1 (UniProt Q7Z2W4)
inactive: [1] -0.116 | [2] 0.059 | [3] -0.101 | [4] 0.185 | [5] 0.084 | [6] -0.067 | [7] 0.11 | [8] 0.375 | [9] -0.076 | [10] -0.248

ZBTB7A (UniProt O95365)
inactive: [1] -0.144 | [2] 0.087 | [3] -0.132 | [4] 0.138 | [5] 0.199 | [6] 0.132 | [7] 0.023 | [8] -0.075 | [9] -0.096 | [10] -0.23

ZDHHC14 (UniProt Q8IZN3)
inactive: [1] 0.018 | [2] -0.049 | [3] -0.025 | [4] 0.038 | [5] 0.002 | [6] 0.015 | [7] 0.032 | [8] -0.028 | [9] 0 | [10] 0.057

ZC3H15 (UniProt Q8WU90)
inactive: [1] -0.016 | [2] 0.025 | [3] 0.052 | [4] 0.029 | [5] 0.089 | [6] 0.084 | [7] 0.05 | [8] 0.099 | [9] -0.018 | [10] 0.116

YKT6 (UniProt O15498)
inactive: [1] 0.052 | [2] -0.002 | [3] 0.004 | [4] -0.06 | [5] 0.014 | [6] 0.04 | [7] -0.023 | [8] -0.032 | [9] 0.004 | [10] 0.016

YWHAH (UniProt Q04917)
inactive: [1] 0.113 | [2] 0.001 | [3] 0.003 | [4] 0.065 | [5] 0.028 | [6] 0.009 | [7] -0.064 | [8] -0.033 | [9] 0.01 | [10] -0.084

YJU2 (UniProt Q9BW85)
inactive: [1] 0.052 | [2] -0.007 | [3] 0.023 | [4] -0.092 | [5] -0.056 | [6] 0.032 | [7] 0.016 | [8] 0.003 | [9] 0.011 | [10] 0.028

YPEL5 (UniProt P62699)
inactive: [1] -0.093 | [2] 0.054 | [3] -0.173 | [4] -0.111 | [5] 0.041 | [6] -0.083 | [7] 0.05 | [8] 0.068

Quoted from the entries so far (5 entries):
ZC3HAV1 (UniProt Q7Z2W4)
inactive: [1] -0.116 | [2] 0.059 | [3] -0.101 | [4] 0.185 | [5] 0.084 | [6] -0.067 | [7] 0.11 | [8] 0.375 | [9] -0.076 | [10] -0.248

ZBTB7A (UniProt O95365)
inactive: [1] -0.144 | [2] 0.087 | [3] -0.132 | [4] 0.138 | [5] 0.199 | [6] 0.132 | [7] 0.023 | [8] -0.075 | [9] -0.096 | [10] -0.23

ZDHHC14 (UniProt Q8IZN3)
inactive: [1] 0.018 | [2] -0.049 | [3] -0.025 | [4] 0.038 | [5] 0.002 | [6] 0.015 | [7] 0.032 | [8] -0.028 | [9] 0 | [10] 0.057

ZC3H15 (UniProt Q8WU90)
inactive: [1] -0.016 | [2] 0.025 | [3] 0.052 | [4] 0.029 | [5] 0.089 | [6] 0.084 | [7] 0.05 | [8] 0.099 | [9] -0.018 | [10] 0.116

YKT6 (UniProt O15498)
inactive: [1] 0.052 | [2] -0.002 | [3] 0.004 | [4] -0.06 | [5] 0.014 | [6] 0.04 | [7] -0.023 | [8] -0.032 | [9] 0.004 | [10] 0.016

More entries follow.

ZFAND2B (UniProt Q8WV99)
inactive: [1] 0.037 | [2] 0.047 | [3] -0.006 | [4] -0.063 | [5] -0.063 | [6] 0.089 | [7] 0.014 | [8] -0.032 | [9] -0.044 | [10] -0.011

YTHDF2 (UniProt Q9Y5A9)
inactive: [1] -0.014 | [2] 0.068 | [3] -0.039 | [4] 0.007 | [5] 0.005 | [6] -0.023 | [7] 0.063 | [8] 0.03 | [9] 0.019 | [10] 0.052

ZCCHC3 (UniProt Q9NUD5)
inactive: [1] -0.145 | [2] 0.096 | [3] 0.169 | [4] 0.128 | [5] 0.069 | [6] 0.011 | [7] 0.048 | [8] 0.166 | [9] -0.053 | [10] -0.37

ZFYVE19 (UniProt Q96K21)
inactive: [1] 0.05 | [2] -0.02 | [3] 0.026 | [4] -0.039 | [5] -0.005 | [6] 0.075 | [7] 0.003 | [8] -0.021 | [9] 0.011 | [10] 0.001

ZBTB8OS (UniProt Q8IWT0)
inactive: [1] -0.052 | [2] -0.054 | [3] -0.099 | [4] -0.114 | [5] -0.043 | [6] -0.039 | [7] -0.008 | [8] -0.004 | [9] -0.031 | [10] 0.003

YTHDF3 (UniProt Q7Z739)
inactive: [1] -0.033 | [2] 0.029 | [3] 0.003 | [4] -0.002 | [5] 0.007 | [6] -0.003 | [7] 0.011 | [8] -0.001 | [9] 0.014 | [10] 0.016

ZMIZ1 (UniProt Q9ULJ6)
inactive: [1] 0.044 | [2] -0.015 | [3] -0.015 | [4] -0.007 | [5] -0.039 | [6] 0 | [7] 0.003 | [8] -0.045 | [9] 0.021 | [10] 0.025

XRCC4 (UniProt Q13426)
inactive: [1] 0.046 | [2] 0.012 | [3] -0.023 | [4] -0.029 | [5] 0.008 | [6] 0.041 | [7] 0.031 | [8] -0.029 | [9] -0.005 | [10] -0.016

YBX3 isoform 2 (UniProt P16989)
inactive: [1] -0.105 | [2] 0.1 | [3] 0.188 | [4] 0.053 | [5] 0.108 | [6] 0.096 | [7] -0.092 | [8] 0.153 | [9] 0.011 | [10] -0.649

ZMPSTE24 (UniProt O75844)
inactive: [1] 0.03 | [2] -0.025 | [3] 0.02 | [4] -0.092 | [5] -0.023 | [6] 0.032 | [7] -0.006 | [8] -0.017 | [9] -0.013 | [10] 0.037

ZC3H4 (UniProt Q9UPT8)
inactive: [1] -0.089 | [2] 0.024 | [3] 0.059 | [4] 0.099 | [5] 0.106 | [6] 0.041 | [7] 0.071 | [8] 0.139 | [9] 0.009 | [10] -0.147

YME1L1 (UniProt Q96TA2)
inactive: [1] -0.018 | [2] 0.013 | [3] -0.009 | [4] -0.011 | [5] 0.008 | [6] -0.069 | [7] 0.041 | [8] 0.008 | [9] 0.025 | [10] 0.051

ZC2HC1A (UniProt Q96GY0)
inactive: [1] 0 | [2] -0.003 | [3] 0.087 | [4] -0.021 | [5] -0.018 | [6] 0.115 | [7] 0.2 | [8] 0.216 | [9] -0.053 | [10] 0.206

ZDHHC3 isoform 2 (UniProt Q9NYG2)
inactive: [1] 0.061 | [2] -0.008 | [3] -0.051 | [4] -0.125 | [5] -0.151 | [6] -0.167 | [7] 0.059 | [8] 0 | [9] 0.019 | [10] -0.013

ZFYVE27 isoform 2 (UniProt Q5T4F4)
inactive: [1] 0.111 | [2] -0.043 | [3] 0.004 | [4] 0.078 | [5] -0.028 | [6] 0.025 | [7] 0.016 | [8] -0.012 | [9] 0.007 | [10] 0.077

ZC3H14 (UniProt Q6PJT7)
inactive: [1] -0.007 | [2] 0 | [3] -0.079 | [4] 0.042 | [5] 0.027 | [6] 0.136 | [7] 0.067 | [8] 0.086 | [9] 0.057 | [10] 0.178

YWHAE (UniProt P62258)
inactive: [1] 0.032 | [2] 0.017 | [3] 0.008 | [4] -0.057 | [5] 0.012 | [6] 0.049 | [7] -0.019 | [8] -0.059 | [9] 0.009 | [10] -0.06

ZC3H13 (UniProt Q5T200)
inactive: [1] 0.075 | [2] 0.02 | [3] -0.003 | [4] -0.295 | [5] 0.023 | [6] 0.081 | [7] 0.187 | [8] 0.202 | [9] 0.074 | [10] -0.025

YRDC (UniProt Q86U90)
inactive: [1] 0.037 | [2] 0.01 | [3] -0.039 | [4] 0.047 | [5] 0.051 | [6] -0.033 | [7] -0.007 | [8] -0.02 | [9] -0.019 | [10] 0.143
